According to PMC9039736, “Identifying novel SMYD3 interactors on the trail of cancer hallmarks” (Computational and Structural Biotechnology Journal, 2022):
These are yes or no findings as the source states them, for the method shown. In cells and extracts the contact can be indirect. Some entries that bind do so weakly or less than the wild type.

Amino acid sequences for entries named in this document (tags omitted). Residues count along the entry.
UniProt P54132: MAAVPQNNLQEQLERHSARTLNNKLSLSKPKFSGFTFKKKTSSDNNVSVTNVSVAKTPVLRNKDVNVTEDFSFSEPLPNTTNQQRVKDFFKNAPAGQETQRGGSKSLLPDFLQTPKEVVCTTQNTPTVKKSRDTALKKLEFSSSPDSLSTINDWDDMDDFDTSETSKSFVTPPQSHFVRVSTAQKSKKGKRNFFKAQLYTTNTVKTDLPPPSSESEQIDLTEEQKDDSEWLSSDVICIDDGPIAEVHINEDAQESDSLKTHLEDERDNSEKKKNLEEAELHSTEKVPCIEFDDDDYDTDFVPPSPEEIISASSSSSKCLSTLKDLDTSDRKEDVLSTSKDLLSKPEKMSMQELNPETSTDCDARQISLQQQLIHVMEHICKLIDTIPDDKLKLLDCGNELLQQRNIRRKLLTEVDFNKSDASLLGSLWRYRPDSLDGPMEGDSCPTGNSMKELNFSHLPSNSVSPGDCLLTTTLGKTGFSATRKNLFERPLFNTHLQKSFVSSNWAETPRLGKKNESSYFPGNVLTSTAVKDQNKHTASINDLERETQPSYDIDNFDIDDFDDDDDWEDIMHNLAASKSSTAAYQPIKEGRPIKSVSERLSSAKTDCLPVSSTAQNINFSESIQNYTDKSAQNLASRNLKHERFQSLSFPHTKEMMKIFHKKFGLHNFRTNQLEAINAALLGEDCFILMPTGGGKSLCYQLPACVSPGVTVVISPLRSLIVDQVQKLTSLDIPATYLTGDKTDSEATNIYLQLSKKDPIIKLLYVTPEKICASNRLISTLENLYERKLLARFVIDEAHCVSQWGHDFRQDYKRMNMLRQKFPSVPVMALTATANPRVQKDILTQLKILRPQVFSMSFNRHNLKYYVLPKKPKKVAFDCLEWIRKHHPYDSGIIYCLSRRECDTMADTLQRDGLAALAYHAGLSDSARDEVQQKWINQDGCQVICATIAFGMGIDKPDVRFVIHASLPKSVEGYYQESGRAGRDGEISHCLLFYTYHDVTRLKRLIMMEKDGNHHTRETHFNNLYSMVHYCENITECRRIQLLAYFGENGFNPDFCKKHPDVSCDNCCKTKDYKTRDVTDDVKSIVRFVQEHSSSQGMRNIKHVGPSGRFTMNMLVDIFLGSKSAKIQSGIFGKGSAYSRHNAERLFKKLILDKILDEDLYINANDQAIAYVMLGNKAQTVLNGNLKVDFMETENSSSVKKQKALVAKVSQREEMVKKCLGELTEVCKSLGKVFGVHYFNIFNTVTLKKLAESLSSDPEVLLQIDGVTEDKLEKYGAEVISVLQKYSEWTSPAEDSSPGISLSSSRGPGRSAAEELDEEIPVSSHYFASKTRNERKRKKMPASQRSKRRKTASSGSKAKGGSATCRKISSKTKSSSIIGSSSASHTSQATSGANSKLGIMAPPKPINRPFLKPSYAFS
UniProt P08581, residues 25-1390: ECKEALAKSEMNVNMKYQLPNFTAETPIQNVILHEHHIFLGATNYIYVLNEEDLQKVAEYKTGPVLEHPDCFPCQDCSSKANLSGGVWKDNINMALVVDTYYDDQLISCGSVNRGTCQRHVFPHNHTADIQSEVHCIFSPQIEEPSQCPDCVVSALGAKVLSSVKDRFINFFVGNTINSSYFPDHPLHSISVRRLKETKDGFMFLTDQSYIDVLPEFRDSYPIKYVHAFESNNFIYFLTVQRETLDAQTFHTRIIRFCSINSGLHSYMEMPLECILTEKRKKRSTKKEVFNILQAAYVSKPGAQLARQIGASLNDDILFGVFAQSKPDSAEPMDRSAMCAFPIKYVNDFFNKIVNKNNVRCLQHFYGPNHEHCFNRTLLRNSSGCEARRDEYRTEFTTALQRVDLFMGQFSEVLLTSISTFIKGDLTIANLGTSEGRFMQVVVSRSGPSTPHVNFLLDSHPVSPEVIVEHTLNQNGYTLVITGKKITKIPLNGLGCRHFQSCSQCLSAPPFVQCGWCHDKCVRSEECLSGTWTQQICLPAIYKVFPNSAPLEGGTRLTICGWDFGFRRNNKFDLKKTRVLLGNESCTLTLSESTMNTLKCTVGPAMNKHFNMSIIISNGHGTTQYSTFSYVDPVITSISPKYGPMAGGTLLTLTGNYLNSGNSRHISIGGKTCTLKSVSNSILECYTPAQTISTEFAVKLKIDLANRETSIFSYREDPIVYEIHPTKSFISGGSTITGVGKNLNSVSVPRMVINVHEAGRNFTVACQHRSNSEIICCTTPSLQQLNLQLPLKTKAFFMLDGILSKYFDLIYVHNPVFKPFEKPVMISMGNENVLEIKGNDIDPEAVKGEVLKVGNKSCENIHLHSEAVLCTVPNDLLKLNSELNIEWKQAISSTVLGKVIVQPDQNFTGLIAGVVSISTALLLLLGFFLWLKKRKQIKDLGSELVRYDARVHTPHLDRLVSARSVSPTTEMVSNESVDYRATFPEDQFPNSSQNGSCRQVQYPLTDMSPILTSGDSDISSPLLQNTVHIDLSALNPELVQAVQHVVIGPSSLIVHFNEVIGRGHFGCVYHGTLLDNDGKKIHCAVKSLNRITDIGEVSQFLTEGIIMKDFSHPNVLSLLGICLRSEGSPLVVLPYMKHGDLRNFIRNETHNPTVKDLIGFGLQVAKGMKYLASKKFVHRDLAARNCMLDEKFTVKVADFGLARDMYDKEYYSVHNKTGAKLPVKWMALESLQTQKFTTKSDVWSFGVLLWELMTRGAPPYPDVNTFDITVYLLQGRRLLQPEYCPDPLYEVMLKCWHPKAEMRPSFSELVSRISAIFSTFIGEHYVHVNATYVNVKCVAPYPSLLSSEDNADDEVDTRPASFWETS
UniProt Q08999: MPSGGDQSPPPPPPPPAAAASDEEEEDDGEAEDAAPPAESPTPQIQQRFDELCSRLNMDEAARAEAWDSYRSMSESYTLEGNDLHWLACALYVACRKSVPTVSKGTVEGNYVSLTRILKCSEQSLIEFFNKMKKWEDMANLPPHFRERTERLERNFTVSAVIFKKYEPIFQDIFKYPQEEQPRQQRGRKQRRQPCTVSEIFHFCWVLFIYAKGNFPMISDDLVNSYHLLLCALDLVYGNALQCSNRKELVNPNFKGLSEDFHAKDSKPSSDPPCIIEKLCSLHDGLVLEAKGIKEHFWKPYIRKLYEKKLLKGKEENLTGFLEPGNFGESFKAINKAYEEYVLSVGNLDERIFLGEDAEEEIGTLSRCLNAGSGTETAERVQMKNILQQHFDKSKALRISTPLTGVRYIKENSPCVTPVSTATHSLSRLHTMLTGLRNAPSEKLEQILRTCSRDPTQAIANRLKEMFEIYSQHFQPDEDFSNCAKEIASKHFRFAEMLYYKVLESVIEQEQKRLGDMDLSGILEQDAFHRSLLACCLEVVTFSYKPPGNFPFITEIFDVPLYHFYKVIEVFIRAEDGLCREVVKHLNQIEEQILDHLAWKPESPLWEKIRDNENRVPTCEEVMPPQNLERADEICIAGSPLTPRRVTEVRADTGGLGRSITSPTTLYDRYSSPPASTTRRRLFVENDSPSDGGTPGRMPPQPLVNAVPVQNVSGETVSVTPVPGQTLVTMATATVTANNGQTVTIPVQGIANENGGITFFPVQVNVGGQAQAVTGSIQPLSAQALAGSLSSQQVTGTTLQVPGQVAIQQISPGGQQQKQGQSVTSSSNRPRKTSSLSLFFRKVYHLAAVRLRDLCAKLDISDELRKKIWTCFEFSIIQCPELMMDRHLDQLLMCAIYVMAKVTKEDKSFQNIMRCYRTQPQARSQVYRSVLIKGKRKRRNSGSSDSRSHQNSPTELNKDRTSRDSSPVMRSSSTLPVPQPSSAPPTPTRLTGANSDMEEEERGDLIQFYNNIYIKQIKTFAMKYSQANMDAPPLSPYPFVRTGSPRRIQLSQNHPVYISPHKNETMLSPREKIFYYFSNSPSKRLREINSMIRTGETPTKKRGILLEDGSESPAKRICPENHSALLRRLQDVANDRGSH

These substances were tested against T1, SMYD3 (endogenous) (human (endogenous in HT-29, HGC-27, HLC-19, CAPAN-1)) (UniProt Q9H7B4) (assay: co-IP; endogenous proteins in whole-cell lysates (HT-29; for some pairs also HGC-27, HLC-19, CAPAN-1); IP with antibody to SMYD3 or to the partner on Dynabeads Protein A or G, immunoblot; lysis buffer 50 mM Tris-HCl pH 7.4, 5 mM EDTA, 250 mM NaCl, 1% Triton X-100; for phospho-MET cells serum-starved 24 h, then 10 ng/ml HGF for 2 h).
T1 sequence: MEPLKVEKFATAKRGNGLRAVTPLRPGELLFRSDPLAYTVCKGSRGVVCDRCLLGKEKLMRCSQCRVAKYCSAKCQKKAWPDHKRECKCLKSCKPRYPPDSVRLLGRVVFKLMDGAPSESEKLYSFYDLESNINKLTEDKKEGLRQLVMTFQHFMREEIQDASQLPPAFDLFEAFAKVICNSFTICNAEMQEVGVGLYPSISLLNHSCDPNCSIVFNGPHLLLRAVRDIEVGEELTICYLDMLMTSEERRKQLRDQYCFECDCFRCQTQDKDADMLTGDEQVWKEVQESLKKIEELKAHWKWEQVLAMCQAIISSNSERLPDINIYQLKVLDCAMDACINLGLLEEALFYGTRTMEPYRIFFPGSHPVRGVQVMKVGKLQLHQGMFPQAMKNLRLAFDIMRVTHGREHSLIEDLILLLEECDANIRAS

| binding | Substance |
| --- | --- |
| binds | Bloom syndrome protein (endogenous) (from UniProt P54132 1-1417) |
| binds | phospho-MET (endogenous, after HGF) (from UniProt P08581 25-1390) (receptor) |
| binds | MET, hepatocyte growth factor (HGF) receptor (endogenous) (from UniProt P08581 25-1390) |
| binds | p130 (RBL2) (endogenous) (from UniProt Q08999 1-1139) |
